# Data source: PubChem BioAssay AID743121 (NCATS, 2013)
# Purpose: 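Partners whose loss is lethal together with topoisomerase I blockade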 (primary screen)
# System: MDA-MB-231 cells, a human breast cancer line
# Reagent: single siRNA against human genes, 20 nM siRNA (0.8 pmol per well)
# Timing: 120 h (drug added 48 h after transfection, read 72 h later)
# Challenge: camptothecin 20 nM (about EC30) for 72 h; vehicle 0.1% DMSO in parallel plates
# Measurement: 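Cell viability by ATP luminescence (CellTiter-Glo) as % of non-targeting siRNA wells, and the log2 ratio of viability without drug over viability with camptothecin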
# Scale: log2 vehicle/camptothecin viability: higher = stronger sensitisation to camptothecin
# Rule for the call: 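Each gene scored by redundant siRNA activity (RSA) over its individual siRNA ratios; a gene is called active at p < 0.001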
# In all, the deposit lists about 26,000 reagents; this is a random part of them. In the full data, 167 (0.63%) got an active call. 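Calls are per gene from RSA p-values that are not deposited; an individual active-marked siRNA can sensitise only weakly.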 Entries without a mark were called inactive. Not all columns of the deposit are shown.
target,PubChem SID,log2 vehicle/camptothecin viability
RNF115,SID164463181,-0.021
RNF115,SID164463183,0.193
RNF115,SID164463185,-0.0209
RNF115,SID164463187,0.484
RTN4R,SID164505061,-0.503
RTN4R,SID164505063,-0.124
RTN4R,SID164505069,0.05
GPR4,SID164367244,0.02
GPR4,SID164367246,0.135
GPR4,SID164367247,0.214
GPR4,SID164367248,-0.0716
KCNK12,SID164490711,-0.0996
KCNK12,SID164490712,-0.314
KCNK12,SID164490713,0.206
KCNK12,SID164490714,0.491
GPD2,SID164367178,-0.0154
GPD2,SID164367180,-0.327
GPD2,SID164367183,0.0318
GPD2,SID164367184,-0.0771
PRPF6,SID164450718,-0.641
PRPF6,SID164450720,0.0907
PRPF6,SID164450722,-0.769
ADARB1,SID164352278,-0.0363
ADARB1,SID164352284,-0.41
ADARB1,SID164352287,-0.25
ADARB1,SID164352288,-0.0764
TRMT1,SID164485540,-0.122
TRMT1,SID164485541,-0.0938
TRMT1,SID164485545,0.238
MAPK1,SID164382707,-0.2
MAPK1,SID164382708,-0.559
MAPK1,SID164382711,-0.0308
MAPK1,SID164382713,1.16
ALOX15B,SID164353125,0.593
ALOX15B,SID164353128,-0.291
ALOX15B,SID164353129,-0.369
ALOX15B,SID164353130,-0.281
RTP3,SID164540805,0.127
RTP3,SID164540806,-0.113
RTP3,SID164540807,-0.302
RTP3,SID164540808,-0.383

Part of the list above, set out differently.
target	PubChem SID	log2 vehicle/camptothecin viability
KCNK12	SID164490711	-0.0996
KCNK12	SID164490712	-0.314
KCNK12	SID164490713	0.206
KCNK12	SID164490714	0.491
GPD2	SID164367178	-0.0154
GPD2	SID164367180	-0.327
GPD2	SID164367183	0.0318
GPD2	SID164367184	-0.0771
PRPF6	SID164450718	-0.641
PRPF6	SID164450720	0.0907

Further entries:
target,PubChem SID,log2 vehicle/camptothecin viability
UNC5C,SID164398836,-0.00967
UNC5C,SID164398837,-0.312
UNC5C,SID164398838,-0.219
UNC5C,SID164398841,-0.335
SLC25A5,SID164353403,0.397
SLC25A5,SID164353405,-0.197
SLC25A5,SID164353407,-0.0913
PYCARD,SID164465184,-0.465
PYCARD,SID164465186,-0.343
PYCARD,SID164465187,-0.287
PYCARD,SID174315986,-0.636
HAGH,SID164368484,0.294
HAGH,SID164368486,-0.342
HAGH,SID164368487,-0.436
HAGH,SID164368488,-0.307
PROKR2,SID164568850,-0.139
PROKR2,SID164568852,0.664
PROKR2,SID164568853,-0.109
PROKR2,SID164568854,0.183
TRIP13,SID164403030,0.144
TRIP13,SID164403032,-0.217
TRIP13,SID164403034,-0.45
TRIP13,SID164403038,0.138
BLMH,SID164355341,-0.331
BLMH,SID164355342,-0.0777
BLMH,SID164355345,-0.301
BLMH,SID164355347,-0.131
